One substance from article doi:10.1101/2020.04.19.044891 can be followed below.

The chains behind the UniProt entries cited, without tags or fusion partners.
UniProt O43707: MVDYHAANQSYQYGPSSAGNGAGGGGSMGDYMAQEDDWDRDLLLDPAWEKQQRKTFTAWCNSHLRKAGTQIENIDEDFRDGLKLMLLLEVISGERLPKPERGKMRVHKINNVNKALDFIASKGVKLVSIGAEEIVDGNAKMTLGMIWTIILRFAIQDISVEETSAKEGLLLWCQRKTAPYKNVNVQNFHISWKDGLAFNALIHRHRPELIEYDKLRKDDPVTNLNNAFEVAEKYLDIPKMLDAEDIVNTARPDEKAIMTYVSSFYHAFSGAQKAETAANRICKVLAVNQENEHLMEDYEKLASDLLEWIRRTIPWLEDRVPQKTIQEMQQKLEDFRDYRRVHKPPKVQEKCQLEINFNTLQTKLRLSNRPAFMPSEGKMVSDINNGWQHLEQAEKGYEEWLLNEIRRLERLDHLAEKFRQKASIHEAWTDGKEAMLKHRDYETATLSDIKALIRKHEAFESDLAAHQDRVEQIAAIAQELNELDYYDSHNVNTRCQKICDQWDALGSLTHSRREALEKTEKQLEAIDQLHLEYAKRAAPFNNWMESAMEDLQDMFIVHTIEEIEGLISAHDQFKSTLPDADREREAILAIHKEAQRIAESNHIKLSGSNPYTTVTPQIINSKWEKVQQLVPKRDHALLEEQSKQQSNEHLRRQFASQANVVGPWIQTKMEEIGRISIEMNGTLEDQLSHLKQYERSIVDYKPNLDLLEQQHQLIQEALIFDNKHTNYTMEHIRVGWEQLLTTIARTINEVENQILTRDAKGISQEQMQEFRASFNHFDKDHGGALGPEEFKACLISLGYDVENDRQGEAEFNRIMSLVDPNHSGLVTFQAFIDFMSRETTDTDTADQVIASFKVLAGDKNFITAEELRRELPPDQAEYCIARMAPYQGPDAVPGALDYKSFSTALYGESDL

No constants are given. Whether binding was seen depends on the method and setting. In cells and extracts the contact can be indirect.

This assay concerns the target T1, EpCAM (Epithelial Cell Adhesion Molecule) (human (endogenous in Caco2)) (UniProt P16422).
T1 sequence: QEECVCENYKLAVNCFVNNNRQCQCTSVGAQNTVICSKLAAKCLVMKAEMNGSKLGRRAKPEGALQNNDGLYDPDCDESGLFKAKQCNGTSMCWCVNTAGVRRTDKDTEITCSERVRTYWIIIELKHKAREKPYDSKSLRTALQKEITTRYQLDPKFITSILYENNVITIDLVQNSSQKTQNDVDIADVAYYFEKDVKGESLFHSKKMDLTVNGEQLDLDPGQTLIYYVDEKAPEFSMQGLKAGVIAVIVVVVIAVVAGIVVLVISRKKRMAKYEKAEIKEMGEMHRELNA
Kind of assay: co-IP.

Take α4-actinin (from UniProt O43707 1-911): the binding entry is “no binding”.
